These are yes or no findings as the source states them, for the method shown. In cells and extracts the contact can be indirect. Some binding calls cover weakened binding; strength is not graded here. Where a sequence is shown, tags or fusion partners need not be part of it.
Biological target: FLAG-tagged full-length USP7 (UniProt Q93009)
Assay: co-IP; HEK 293 cells with inducible FLAG-USP7 transfected with HA-C16orf72/HAPSTR1; lysates with or without doxycycline induction immunoprecipitated with FLAG antibody; Western blot of HA

Protein sequences, listed by entry. Tags and fused reporters are not part of them.
UniProt Q93009: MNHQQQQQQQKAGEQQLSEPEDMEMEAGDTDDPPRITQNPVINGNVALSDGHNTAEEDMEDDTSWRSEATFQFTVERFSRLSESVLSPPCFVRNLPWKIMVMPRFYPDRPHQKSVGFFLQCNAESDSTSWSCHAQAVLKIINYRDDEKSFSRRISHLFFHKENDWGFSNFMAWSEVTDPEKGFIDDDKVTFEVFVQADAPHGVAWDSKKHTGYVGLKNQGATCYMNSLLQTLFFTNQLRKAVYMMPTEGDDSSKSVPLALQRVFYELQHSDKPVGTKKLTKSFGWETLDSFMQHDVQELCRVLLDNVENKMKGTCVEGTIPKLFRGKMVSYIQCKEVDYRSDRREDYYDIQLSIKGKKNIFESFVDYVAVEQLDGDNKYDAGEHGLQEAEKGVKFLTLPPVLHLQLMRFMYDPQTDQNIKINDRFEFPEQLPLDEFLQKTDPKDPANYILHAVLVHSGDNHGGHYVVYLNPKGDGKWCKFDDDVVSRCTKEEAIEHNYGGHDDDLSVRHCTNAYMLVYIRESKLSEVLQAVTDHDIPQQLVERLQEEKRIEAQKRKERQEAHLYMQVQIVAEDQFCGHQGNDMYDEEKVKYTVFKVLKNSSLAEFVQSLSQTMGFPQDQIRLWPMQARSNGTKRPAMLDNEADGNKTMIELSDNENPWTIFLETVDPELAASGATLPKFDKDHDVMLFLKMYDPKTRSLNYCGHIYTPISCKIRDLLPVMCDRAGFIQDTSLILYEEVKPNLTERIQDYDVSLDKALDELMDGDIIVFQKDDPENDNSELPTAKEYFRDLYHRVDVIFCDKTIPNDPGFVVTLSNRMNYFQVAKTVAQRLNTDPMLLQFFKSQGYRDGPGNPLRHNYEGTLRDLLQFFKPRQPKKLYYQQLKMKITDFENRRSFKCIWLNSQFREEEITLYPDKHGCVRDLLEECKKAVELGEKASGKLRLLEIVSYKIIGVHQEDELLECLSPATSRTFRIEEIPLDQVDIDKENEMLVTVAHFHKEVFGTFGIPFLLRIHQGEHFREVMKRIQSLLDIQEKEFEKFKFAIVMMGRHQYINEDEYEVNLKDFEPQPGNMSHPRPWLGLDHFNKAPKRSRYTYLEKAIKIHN

binding: binds
B1: HA-tagged C16orf72/HAPSTR1 (protein, UniProt Q14CZ0 1-275)
chain: MEERKEEGEAEIQEHGPEHWFSKWERQCLAEAEQDEQLPPELQEEAAAAAQPEHKQQKLWHLFQNSATAVAQLYKDRVCQQPGLSLWVPFQNAATAVTNLYKESVDTHQRSFDIGIQIGYQRRNKDVLAWVKKRRRTIRREDLISFLCGKVPPPRNSRAPPRLTVVSPNRATSTETSSSVETDLQPFREAIALHGLSGAMASISVRSSTPGSPTHVSSGSNASRRRNGLHDVDLNTFISEEMALHLDNGGTRKRTSAQCGDVITDSPTHKRNRMI

— publication PMC11148184
